Assay results: patent US20230235090A1
Where a chain is given by its changes, count along the chain named. No constants are given. Whether binding was seen depends on the method and setting. Binding calls can cover weak binding; strength is not graded here.

B1: PR001763 (antibody, human IgG1, V domains shown)
VH: EVQLLESGGGLVQPGGSLRLSCTASGFTFSNYAMSWVRQAPEKGLEWVSSISGSGGSTFYADSVKGRFTISRDNSKNTLYLQMNRLTAEDTAVYYCAKEGSNGTDDYHYDIDVWGQGTTVTVSS
B2: PR001758 (antibody, human IgG1, V domains shown)
VH: EVQLLESGGGLVQLGGSLRLSCAASGFTFSRYAMTWVRQAPEKGLEWVSSISGSGDDTYYGDSVKGRFTISRDNSQNTVYLQMNSLRAEDTAVYFCAKEKAGTTGDYYYNVDVWGQGTTVTVSS
B3: PR001764 (antibody, human IgG1, V domains shown)
VH: EVQLLESGGGLVQPGGSLRLSCAASGFTFSSYAMSWVRQAPEKGLEWVSAISGGGGSTYYADSVKGRFTISRDNSKNTLYLQMDSLKAEDTAVYYCAKEGTTETDDYHYNMDVWGQGTTVTVSS
B4: PR001767 (antibody, human IgG1, V domains shown)
VH: EVQLVETGGGLIQPGGSLRLSCAASGFTVSSNYMSWVRQAPGKGLEWVSVIYSDGSTYYADSVKGRFTISRDNSKNTLYLQMNSLRAEDTAVYYCARDRYYGSGNYPTAYYGMDVRGQGTTVTVSS
B5: PR001774 (antibody, human IgG1, V domains shown)
VH: EVQLVESGGGLVQPGGSLRLSCAASGFTFSSFAMTWVRQAPEKGLEWVSTISGSGDTTYYADSVKGRFTISRDSSKNTLYLQMNSLRAEDSAVYFCAKEATAMASDYYYGVDVWGQGTTVTVSS
B6: PR001780 (antibody, human IgG1, V domains shown)
VH: B5 VH with V5L, V12I, E42G, T57N, S74N, S91T, A100D, M103V, G110N, V111I
B7: PR001781 (antibody, human IgG1, V domains shown)
VH: B2 VH with R31S, D56G, D57N, G61A, Q76K, V79L, F95Y, K100R, A101T
B8: PR001833 (antibody, human IgG1, V domains shown)
VH: B3 VH with A50S, G54S, Y59F, D84N, K87R, Y95F, T101A, Y109F, M111T
B9: PR001838 (antibody, human IgG1, V domains shown)
VH: EVQLLESGGGLVQPGGSLRLSCAASGFTFSNYAMSWFRQPPETGLKWVSSIDGSGGDTYYADSVKGRFTISRDNSKNTLYLQMNSLRAEDTAVYYCAKEGSHGTDDSHYDVDVWGQGTTVTVSS
B10: PR001842 (antibody, human IgG1, V domains shown)
VH: EVQLLESGGGLVQPGGSLRLSCAASGFTFSSYAMSWGRQAPGKGLEWVSAISGSGGSTYYADSVKGRFTISRDNSKNTLYLHMNSLRAEDTAVYYCAKEKVATTGDYYYDMDVWGQGTTVTVSS
B11: PR004469 (antibody, human IgG1, V domains shown)
VH: B9 VH with G53A
B12: PR007381 (antibody, human IgG1, V domains shown)
VH: B9 VH with F37V, P40A, E42G, T43K, K46E, G53A

target: cynomolgus monkey 4-1BB (cynomolgus monkey); assay: FACS on CHO-K1-cyno 4-1BB cells

How did the binding turn out when B1 was run?
Its binding is “binds”.

How did the binding turn out when B2 was run?
The binding was “binds”.

For B3, which binding is on record?
Its binding is “binds”.

Which binding does the source give for B4 here?
Its binding is “binds”.

With B5 as the binder, how does the binding read?
Its binding is “binds”.

Which binding does the source give for B6 here?
The binding was “binds”.

With B7 as the binder, how does the binding read?
The binding was “binds”.

B8 was tested. Which binding did it give?
Its binding is “binds”.

How did the binding turn out when B9 was run?
The binding was “binds”.

For B10, which binding is on record?
The binding was “binds”.

How did the binding turn out when B11 was run?
Its binding is “binds”.

Which binding does the source give for B12 here?
Its binding is “binds”.

target: cynomolgus monkey 4-1BB (cynomolgus monkey); assay: FACS, CHO-K1/cyno 4-1BB cells [B]

Which binding does the source give for B1 here?
Its binding is “binds”.
